Assay results: paper PMC7947288
No constants are given. Whether binding was seen depends on the method and setting. In cells and extracts the contact can be indirect. These calls come from enrichment with a bait or labelling near it, and not all partners need be listed. For some of these results: Where a sequence is shown, tags or fusion partners need not be part of it.

The chains behind the UniProt entries cited, without tags or fusion partners.
UniProt P11142: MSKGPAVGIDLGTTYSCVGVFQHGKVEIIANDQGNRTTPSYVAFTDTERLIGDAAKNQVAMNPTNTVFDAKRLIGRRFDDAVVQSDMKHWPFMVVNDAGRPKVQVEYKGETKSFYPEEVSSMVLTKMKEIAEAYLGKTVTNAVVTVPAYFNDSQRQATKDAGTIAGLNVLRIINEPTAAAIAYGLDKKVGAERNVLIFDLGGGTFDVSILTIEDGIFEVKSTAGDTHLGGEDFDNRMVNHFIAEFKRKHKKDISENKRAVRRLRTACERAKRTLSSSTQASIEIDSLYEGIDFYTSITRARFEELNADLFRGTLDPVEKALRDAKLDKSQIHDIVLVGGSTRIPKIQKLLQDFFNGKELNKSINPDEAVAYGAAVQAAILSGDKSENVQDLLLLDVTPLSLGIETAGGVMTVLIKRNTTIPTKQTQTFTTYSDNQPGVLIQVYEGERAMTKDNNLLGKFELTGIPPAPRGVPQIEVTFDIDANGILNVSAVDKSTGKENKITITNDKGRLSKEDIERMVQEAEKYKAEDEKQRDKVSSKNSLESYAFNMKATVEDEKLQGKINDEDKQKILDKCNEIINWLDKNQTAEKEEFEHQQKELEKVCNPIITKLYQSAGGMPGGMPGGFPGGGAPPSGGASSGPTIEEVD

Key:
Test in all cases: affinity purification with mass spectrometry; 293T cells transfected with Flag-tagged NSD2 isoform, Flag alone as control; lysed after 48 h, immunoprecipitation, SDS-PAGE, silver-stained strips analysed by LTQ-ESI-MS, label-free quantification, three biological replicates
[1] = target: Flag-tagged NSD2 Isoform 1 (human) (UniProt O96028)
[2] = target: T1, Flag-tagged NSD2 Isoform 3 (human) (UniProt O96028)
T1 sequence: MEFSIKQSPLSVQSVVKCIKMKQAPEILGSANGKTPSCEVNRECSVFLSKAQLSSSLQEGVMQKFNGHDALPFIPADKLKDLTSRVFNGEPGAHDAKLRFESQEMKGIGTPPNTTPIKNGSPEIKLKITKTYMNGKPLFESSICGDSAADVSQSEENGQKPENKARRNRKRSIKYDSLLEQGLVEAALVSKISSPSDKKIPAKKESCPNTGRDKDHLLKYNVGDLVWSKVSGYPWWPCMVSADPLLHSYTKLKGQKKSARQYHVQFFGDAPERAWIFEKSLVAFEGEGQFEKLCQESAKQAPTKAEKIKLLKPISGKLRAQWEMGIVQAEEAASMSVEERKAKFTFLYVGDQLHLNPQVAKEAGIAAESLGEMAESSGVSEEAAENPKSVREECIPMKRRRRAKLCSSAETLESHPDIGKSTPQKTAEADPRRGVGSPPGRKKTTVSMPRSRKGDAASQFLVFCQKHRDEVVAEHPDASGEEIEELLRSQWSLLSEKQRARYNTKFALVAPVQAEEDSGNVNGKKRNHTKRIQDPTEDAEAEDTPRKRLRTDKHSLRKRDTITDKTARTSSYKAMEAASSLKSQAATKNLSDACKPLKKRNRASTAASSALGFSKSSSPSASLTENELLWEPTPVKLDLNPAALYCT

[3] = target: T2, Flag-tagged NSD2 Isoform 5 (human) (UniProt O96028)
T2 sequence: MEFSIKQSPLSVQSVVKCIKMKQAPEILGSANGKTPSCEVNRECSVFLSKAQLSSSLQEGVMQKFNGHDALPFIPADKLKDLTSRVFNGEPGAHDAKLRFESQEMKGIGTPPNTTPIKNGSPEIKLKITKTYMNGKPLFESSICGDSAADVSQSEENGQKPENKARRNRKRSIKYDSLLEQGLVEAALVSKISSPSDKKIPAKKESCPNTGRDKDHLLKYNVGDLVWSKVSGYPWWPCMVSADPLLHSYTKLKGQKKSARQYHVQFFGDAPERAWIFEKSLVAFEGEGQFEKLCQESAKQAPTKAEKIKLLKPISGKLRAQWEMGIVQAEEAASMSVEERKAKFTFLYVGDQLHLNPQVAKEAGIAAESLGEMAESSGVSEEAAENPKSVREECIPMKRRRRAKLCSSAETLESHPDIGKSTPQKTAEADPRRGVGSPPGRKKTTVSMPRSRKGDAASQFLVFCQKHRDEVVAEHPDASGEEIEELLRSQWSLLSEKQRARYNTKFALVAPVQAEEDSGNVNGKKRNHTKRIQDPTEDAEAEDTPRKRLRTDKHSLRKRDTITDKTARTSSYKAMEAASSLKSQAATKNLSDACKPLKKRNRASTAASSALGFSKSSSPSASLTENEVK

[4] = target: T3, Flag-tagged NSD2 Isoform 7 (human) (UniProt O96028)
T3 sequence: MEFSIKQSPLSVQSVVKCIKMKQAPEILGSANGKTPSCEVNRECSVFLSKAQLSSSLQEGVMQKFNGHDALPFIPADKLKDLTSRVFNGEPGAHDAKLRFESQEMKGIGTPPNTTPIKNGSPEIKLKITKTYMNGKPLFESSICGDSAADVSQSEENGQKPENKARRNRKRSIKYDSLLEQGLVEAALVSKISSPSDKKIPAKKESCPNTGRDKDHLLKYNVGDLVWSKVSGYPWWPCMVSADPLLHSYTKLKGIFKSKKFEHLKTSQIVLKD

binding [1]: binds
binding [2]: binds
binding [3]: binds
binding [4]: binds
Substance: HSPA8 (endogenous, found by IP-MS) (from UniProt P11142 1-646)
